Record: PubChem BioAssay AID1508588 (Peter MacCallum Cancer Centre, 2020)

Screen: 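Knock-downs boosting vemurafenib effects on melanoma cell growth or lactate release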 (primary screen)
System: human WM266.4 melanoma cells (BRAF V600 mutant)
Knock-down reagent: siRNA pool against human genes, 40 nM
Time to read-out: 96 h from transfection to read-out
Conditions: vemurafenib 300 nM (about IC25), added 48 h after transfection, for 48 h; comparison arm got DMSO vehicle only
Detection: 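Cell gain (DAPI nuclei at end minus before drug, mean of two replicates) and medium lactate by absorbance per cell, both as ratio to non-targeting siRNA, also grouped into fold-change classes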
Scale: cell gain with vemurafenib: higher = more cell gain than with non-targeting siRNA; lactate per cell with vemurafenib: higher = more lactate made per cell
Call rule: 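a knock-down counts as enhancing when its fold-change classes with vehicle and with vemurafenib, taken together, show a stronger drug effect on cell gain or lactate per cell; exact class pairs not stated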
Calls: active = enhances vemurafenib effect; inactive = no enhancement seen
The whole screen tested about 18,000 reagents; shown is a part drawn at random. In the full data, 790 (4.4%) are marked active. 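Calls rest on a combination of fold-change classes in drug and vehicle arms, not all shown here.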 The numbers tell different reagents against one gene apart. Reagent sequences are not shown.

The opening 2 records as a preview:
gene	reagent	cell gain with vemurafenib	lactate per cell with vemurafenib	activity call
PRR23B	1	0.32	1.73	inactive
HNRNPDL	1	0.89	0.73	inactive

Results, repeating the preview:
gene	reagent	cell gain with vemurafenib	lactate per cell with vemurafenib	activity call
PRR23B	1	0.32	1.73	inactive
HNRNPDL	1	0.89	0.73	inactive
MACROH2A2	1	0.33	1.15	inactive
STIM1	1	0.62	0.94	inactive
ABCB1	1	0.12	0.47	inactive
MRPS23	1	0.47	1.22	inactive
ILK	1	0.92	0.8	inactive
ILK	2	0.47	1.2	inactive
BEX4	1	0.54	0.7	inactive
MMP10	1	0.31	0.5	inactive
TAS2R40	1	0.69	0.52	inactive
MINDY2	1	0.92	0.87	inactive
WNT10B	1	0.09	0.52	active
ZNF497	1	0.54	1.16	inactive
FAM50A	1	0.97	0.5	inactive
DKK1	1	0.84	0.62	inactive
BTC	1	0.4	1	inactive
CD164L2	1	0.24	1.27	inactive
PSMC3IP	1	0.48	1.38	inactive
GPC3	1	0.55	0.6	inactive
ADGRF2P	1	0.26	1.18	inactive
INTS6	1	0.17	2.04	inactive
RNASEL	1	0.61	1.25	inactive
TMSB10	1	1.08	0.78	inactive
LCNL1	1	0.25	1.75	inactive
GFRA3	1	0.46	0.94	inactive
OPCML	1	1.25	0.58	inactive
FLACC1	1	0.87	1.23	inactive
CRYBB2	1	0.2	1.41	inactive
SEC23A	1	0.71	1	inactive
SEC24A	1	1.47	0.86	inactive
CCT5	1	0.29	1.69	inactive
ABCC11	1	0.89	0.8	inactive
SOD1	1	0.92	1.7	inactive
NEK1	1	0.32	2.38	inactive
COMMD5	1	0.63	1.28	inactive
TRIM42	1	0.96	0.8	inactive
SLC22A2	1	0.64	0.73	inactive
UNC13B	1	0.85	1.15	inactive
TRIM50	1	0.73	0.84	inactive
IGFBP1	1	1.02	0.55	inactive
POLA1	1	-0.05	1.93	inactive
MEIG1	1	1.02	0.88	inactive
CDK16	1	0.46	1.84	inactive
PCDHB13	1	0.49	0.38	inactive
TMPO	1	0.28	0.5	inactive
WLS	1	0.92	0.84	inactive
ACOT11	1	0.55	1.31	inactive
C20orf141	1	0.43	1.23	inactive
RBL2	1	0.95	0.51	inactive
CLIP2	1	0.49	0.67	inactive
ATXN1	1	0.97	0.96	inactive
OTUD6A	1	0.08	1.84	inactive
PIK3R3	1	0.7	1	inactive
CT47A8	1	0.93	0.4	active
CAPN2	1	0.44	1.05	inactive
ZFY	1	0.07	1.04	inactive
RPL7L1	1	0.86	0.71	inactive
GPR55	1	1.24	0.86	inactive
HRNR	1	0.9	0.5	inactive
GLP2R	1	0.71	1.62	inactive
TCEAL2	1	0.76	1.15	inactive
FLOT1	1	0.28	2.37	inactive
LRRC19	1	0.78	0.8	inactive
LYPD8	1	1.02	0.62	inactive
MTX1	1	0.2	2.6	inactive
RPP25	1	0.21	1.04	inactive
EDEM1	1	1.04	0.66	inactive
ZRANB1	1	0.53	1.67	inactive
ABI2	1	0.56	1.35	inactive
ZNF577	1	0.19	1.2	inactive
CSTPP1	1	0.03	0.24	inactive
OCEL1	1	0.73	0.62	inactive
GRHL2	1	0.74	0.89	inactive
DNM1	1	0.69	1.29	inactive
UBE2A	1	0.73	0.53	inactive
CAND2	1	0.56	1.18	inactive
DPYD	1	0.9	0.5	inactive
RHOBTB2	1	0.46	0.91	inactive
EPG5	1	0.21	2.31	inactive
B4GALNT1	1	0.46	0.72	inactive
JADE2	1	1.11	0.97	inactive
NUDT11	1	0.25	1.99	inactive
LINC01559	1	1.09	0.38	inactive
